# Measured data: PubChem BioAssay AID1259308 (NCATS, 2017)
# Test: 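Candidate targets for better recombinant protein yield in mammalian cells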 (primary screen)
# Cell system: human HEK293 embryonic kidney cells stably expressing firefly luciferase (HEK-CMV-Luc2-Hygro)
# Reagent: single siRNA against human genes, 0.8 pmol siRNA per well
# Duration: 72 h
# Measured: 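Reporter luminescence and viable-cell signal on separate replicate plates, given as percent of non-targeting control and median/MAD z-scores, plus per-cell luciferase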
# Reading the numbers: total luciferase, z-score and total luciferase, % of control: higher = more reporter protein produced; luciferase per cell, z-score: higher = more reporter output per viable cell; viable cells, % of control: higher = more viable cells
# Rule for the call: 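Active when the median/MAD z-score for overall luciferase is greater than 3; a gene was taken forward for validation with new siRNAs if at least two of its three siRNAs passed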
# Meaning of the calls: active = raised luciferase; inactive = no rise
# The deposit covers about 59,000 reagents; this is a part drawn at random. About 1,510 of them (2.6%) were called active. 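Calls use total luciferase alone and ignore viability, so some active siRNAs may act by altering cell number.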 Unmarked entries are inactive.
Gene,PubChem SID,"total luciferase, z-score","total luciferase, % of control","luciferase per cell, z-score","viable cells, % of control"
ABHD15,SID160755378,0.901,99.8,0.703,92.7
ABHD15,SID160755379,1.13,104,0.552,101
ABHD15,SID160755380,1.24,107,0.7,99
TAFA4,SID160732575,-0.403,73.9,-1.13,111
TAFA4,SID160759135,0.716,96.1,0.734,88.5
TAFA4,SID160759136,0.635,94.5,0.46,93.6
RILP,SID160751192,1.34,109,-0.118,125
RILP,SID160751193,-0.244,77,0.0354,85.3
RILP,SID160751194,0.0289,82.5,-0.289,99.4

2 of these entries, set out differently.
{"Gene": "ABHD15", "PubChem SID": "SID160755380", "total luciferase, z-score": 1.24, "total luciferase, % of control": 107, "luciferase per cell, z-score": 0.7, "viable cells, % of control": 99}
{"Gene": "TAFA4", "PubChem SID": "SID160732575", "total luciferase, z-score": -0.403, "total luciferase, % of control": 73.9, "luciferase per cell, z-score": -1.13, "viable cells, % of control": 111}

Next records follow.
Gene,PubChem SID,"total luciferase, z-score","total luciferase, % of control","luciferase per cell, z-score","viable cells, % of control"
C1GALT1C1L,SID160772175,-0.0679,80.5,0.726,74.3
C1GALT1C1L,SID160772176,-0.203,77.9,-0.379,96.1
C1GALT1C1L,SID160772177,-1.25,57.1,-1.11,85.4
ETFBKMT,SID160732804,0.5,91.8,-0.0757,105
ETFBKMT,SID160762133,1.27,107,0.987,92.3
ETFBKMT,SID160762134,0.168,85.2,0.477,84
KRT3,SID160776381,-2.52,31.7,-3.33,85.1
KRT3,SID160776382,-0.166,78.6,-0.538,101
KRT3,SID160776383,0.861,99,0.247,104
SUSD4,SID160742840,1.52,112,1.13,93.1
SUSD4,SID160742841,-0.0885,80.1,-0.798,110
SUSD4,SID160742842,0.09,83.7,-0.196,98.5
RGMA,SID160745408,0.249,86.8,0.46,86
RGMA,SID160745409,-2.43,33.5,-2.93,80.9
RGMA,SID160745412,1.69,116,0.809,104
